Experimental data taken from patent publication US12569554B2, “Triterpene saponin analogues” (priority 2017, dated 2026).
Some entries share one result that the patent states for a list of compounds.

Format: in vivo, mice
Details: 50 mcg TiterQuil-1055, 20 mcg QS-21, Adacel 2.5 mcg pertussis toxin, alone or combined; SC days 1 and 15, weighed daily
Experimental: Adacel doses containing 1, 0.3, and 0.1 mcg of pertussis toxin per mouse were administered subcutaneously (SC, with no immunological adjuvant), using 2 vaccinations 4 weeks apart, resulting in a mean of 1,618 mcg, 898 mcg, and 107 mcg respectively of anti-PT antibody per ml of serum drawn 2 weeks after the second vaccination. The 0.1 mcg dose was indistinguishable from unvaccinated controls (96 mcg/ml). A 0.5 mcg dose of Adacel was selected for a pharmacology/toxicology (pharm/tox) study. The serological results for this study are summarized in FIG. 3 of the present application.
A pharm/tox study was conducted in 7 groups of 5 mice: 1) PBS alone, 2) 50 mcg TiterQuil-1055, 3) 20 mcg QS-21, 4) Adacel 2.5 mcg pertussis toxin (1/5 the human dose), 5) Adacel+QS-21 (20 mcg QS-21), 6) Adacel+TiterQuil-1055 (50 mcg), 7) Adacel+TiterQuil-1055 (50 mcg). Mice were vaccinated SC on days 1 and 15, weighed daily, and bled and sacrificed on day 22, except for group 7 which was sacrificed on day 29. […] Histopathology of 33 different tissues was performed on all mice. Detected abnormalities were restricted to the liver. […] This abnormality was short lived and was no detected in group 7, which was sacrificed one week after groups 1-6.

QS-21 [reference compound]
weight loss: 7-9%
